Experimental data: US20030003547
The exact form of at least one protein or probe is not confirmed.

Test system: XbaI restriction endonuclease
Experiment: enzyme reaction in vitro
Conditions: joint molecules with TFOØ-S+R (no triplex) are cleaved; purified recombinant protein; only the site is given

CGTCTAGAAAAGAAAAGGGGGGATACGC (double strand) [Y0Gorec plasmid triplex target (XbaI site overlapping)]
activity on this sequence: active
